# PubChem BioAssay AID1259308 – NCATS | 2017
# Aim: 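Genes whose loss raises luciferase production in HEK293 cells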 (primary screen)
# Cells: human HEK293 embryonic kidney cells stably expressing firefly luciferase (HEK-CMV-Luc2-Hygro)
# Knock-down reagent: single siRNA against human genes, 0.8 pmol siRNA per well
# Timing: 72 h
# Measurement: 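Luciferase light (ONE-Glo) measured on one replicate plate set and viability (CellTiter-Glo) on the other, scaled to a negative control siRNA, with robust z-scores and luciferase per cell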
# Direction: total luciferase, z-score: higher = more reporter protein produced
# Call rule: 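Active when the median/MAD z-score for overall luciferase is greater than 3; a gene was taken forward for validation with new siRNAs if at least two of its three siRNAs passed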
# Calls: active = raised luciferase; inactive = no rise
# The deposit covers about 59,000 reagents; this is a part drawn at random. About 1,510 of all reagents (2.6%) count as active. 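Calls use total luciferase alone and ignore viability, so some active siRNAs may act by altering cell number.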 Reagents against one gene are numbered here. Further read-outs or replicates are left out here.
The first 9 entries as a preview:
Target gene,reagent,"total luciferase, z-score",Outcome
P3H4,1,1.43,inactive
P3H4,2,-1.21,inactive
P3H4,3,-2.52,inactive
ZNF765,1,-1.7,inactive
ZNF765,2,2.4,inactive
ZNF765,3,0.221,inactive
CDC7,1,0.181,inactive
CDC7,2,0.489,inactive
CDC7,3,-0.843,inactive

Main list, repeating the preview:
Target gene,reagent,"total luciferase, z-score",Outcome
P3H4,1,1.43,inactive
P3H4,2,-1.21,inactive
P3H4,3,-2.52,inactive
ZNF765,1,-1.7,inactive
ZNF765,2,2.4,inactive
ZNF765,3,0.221,inactive
CDC7,1,0.181,inactive
CDC7,2,0.489,inactive
CDC7,3,-0.843,inactive
HSPA1B,1,0.222,inactive
HSPA1B,2,-0.591,inactive
HSPA1B,3,3.19,active
ABHD16A,1,0.754,inactive
ABHD16A,2,1,inactive
ABHD16A,3,0.161,inactive
HSD17B13,1,0.254,inactive
HSD17B13,2,-1.03,inactive
HSD17B13,3,-0.117,inactive
DSG3,1,0.883,inactive
DSG3,2,0.389,inactive
DSG3,3,0.256,inactive
OR2T6,1,0.902,inactive
OR2T6,2,0.063,inactive
OR2T6,3,-0.489,inactive
MED22,1,-0.441,inactive
MED22,2,-0.502,inactive
MED22,3,0.916,inactive
SLC12A8,1,3.16,active
SLC12A8,2,0.464,inactive
SLC12A8,3,3.32,active
ZNF286A,1,-0.827,inactive
ZNF286A,2,-2.06,inactive
ZNF286A,3,-0.654,inactive
DACT2,1,-0.182,inactive
DACT2,2,0.0852,inactive
DACT2,3,-0.175,inactive
FBXL5,1,0.561,inactive
FBXL5,2,0.455,inactive
FBXL5,3,-0.311,inactive
PI4KA,1,-0.108,inactive
PI4KA,2,-0.835,inactive
PI4KA,3,-0.0105,inactive
CELSR3,1,-0.0454,inactive
CELSR3,2,2.47,inactive
CELSR3,3,1.93,inactive
AKAP19,1,-0.886,inactive
AKAP19,2,-1.77,inactive
AKAP19,3,-2.02,inactive
SGCB,1,-0.645,inactive
SGCB,2,0.319,inactive
SGCB,3,0.624,inactive
PRSS12,1,-0.144,inactive
PRSS12,2,0.00312,inactive
PRSS12,3,0.705,inactive
ANXA6,1,-0.652,inactive
ANXA6,2,-1.46,inactive
ANXA6,3,2.08,inactive
TDP2,1,-0.105,inactive
TDP2,2,-0.384,inactive
TDP2,3,-0.268,inactive
MIMS1,1,0.0765,inactive
MIMS1,2,1.11,inactive
MIMS1,3,-0.997,inactive
FBXO6,1,-0.175,inactive
FBXO6,2,0.951,inactive
FBXO6,3,-1.66,inactive
CCNB3,1,-0.305,inactive
CCNB3,2,-1.19,inactive
CCNB3,3,0.592,inactive
CD83,1,0.475,inactive
CD83,2,1.04,inactive
CD83,3,-1.78,inactive
DUSP23,1,-0.233,inactive
DUSP23,2,0.41,inactive
DUSP23,3,0.414,inactive
